Test results reported in publication doi:10.1101/2022.09.10.507283.
Results are given in words; binding and its absence hold for the method and conditions named. In cells and extracts the contact can be indirect. For part of these data: Binding can be weak; no strength is given.

Chains of the proteins cited; added tags and fusions are not shown. Lines headed by an entry give the natural chain unless they say otherwise; changes in a name come on top.
UniProt Q07157: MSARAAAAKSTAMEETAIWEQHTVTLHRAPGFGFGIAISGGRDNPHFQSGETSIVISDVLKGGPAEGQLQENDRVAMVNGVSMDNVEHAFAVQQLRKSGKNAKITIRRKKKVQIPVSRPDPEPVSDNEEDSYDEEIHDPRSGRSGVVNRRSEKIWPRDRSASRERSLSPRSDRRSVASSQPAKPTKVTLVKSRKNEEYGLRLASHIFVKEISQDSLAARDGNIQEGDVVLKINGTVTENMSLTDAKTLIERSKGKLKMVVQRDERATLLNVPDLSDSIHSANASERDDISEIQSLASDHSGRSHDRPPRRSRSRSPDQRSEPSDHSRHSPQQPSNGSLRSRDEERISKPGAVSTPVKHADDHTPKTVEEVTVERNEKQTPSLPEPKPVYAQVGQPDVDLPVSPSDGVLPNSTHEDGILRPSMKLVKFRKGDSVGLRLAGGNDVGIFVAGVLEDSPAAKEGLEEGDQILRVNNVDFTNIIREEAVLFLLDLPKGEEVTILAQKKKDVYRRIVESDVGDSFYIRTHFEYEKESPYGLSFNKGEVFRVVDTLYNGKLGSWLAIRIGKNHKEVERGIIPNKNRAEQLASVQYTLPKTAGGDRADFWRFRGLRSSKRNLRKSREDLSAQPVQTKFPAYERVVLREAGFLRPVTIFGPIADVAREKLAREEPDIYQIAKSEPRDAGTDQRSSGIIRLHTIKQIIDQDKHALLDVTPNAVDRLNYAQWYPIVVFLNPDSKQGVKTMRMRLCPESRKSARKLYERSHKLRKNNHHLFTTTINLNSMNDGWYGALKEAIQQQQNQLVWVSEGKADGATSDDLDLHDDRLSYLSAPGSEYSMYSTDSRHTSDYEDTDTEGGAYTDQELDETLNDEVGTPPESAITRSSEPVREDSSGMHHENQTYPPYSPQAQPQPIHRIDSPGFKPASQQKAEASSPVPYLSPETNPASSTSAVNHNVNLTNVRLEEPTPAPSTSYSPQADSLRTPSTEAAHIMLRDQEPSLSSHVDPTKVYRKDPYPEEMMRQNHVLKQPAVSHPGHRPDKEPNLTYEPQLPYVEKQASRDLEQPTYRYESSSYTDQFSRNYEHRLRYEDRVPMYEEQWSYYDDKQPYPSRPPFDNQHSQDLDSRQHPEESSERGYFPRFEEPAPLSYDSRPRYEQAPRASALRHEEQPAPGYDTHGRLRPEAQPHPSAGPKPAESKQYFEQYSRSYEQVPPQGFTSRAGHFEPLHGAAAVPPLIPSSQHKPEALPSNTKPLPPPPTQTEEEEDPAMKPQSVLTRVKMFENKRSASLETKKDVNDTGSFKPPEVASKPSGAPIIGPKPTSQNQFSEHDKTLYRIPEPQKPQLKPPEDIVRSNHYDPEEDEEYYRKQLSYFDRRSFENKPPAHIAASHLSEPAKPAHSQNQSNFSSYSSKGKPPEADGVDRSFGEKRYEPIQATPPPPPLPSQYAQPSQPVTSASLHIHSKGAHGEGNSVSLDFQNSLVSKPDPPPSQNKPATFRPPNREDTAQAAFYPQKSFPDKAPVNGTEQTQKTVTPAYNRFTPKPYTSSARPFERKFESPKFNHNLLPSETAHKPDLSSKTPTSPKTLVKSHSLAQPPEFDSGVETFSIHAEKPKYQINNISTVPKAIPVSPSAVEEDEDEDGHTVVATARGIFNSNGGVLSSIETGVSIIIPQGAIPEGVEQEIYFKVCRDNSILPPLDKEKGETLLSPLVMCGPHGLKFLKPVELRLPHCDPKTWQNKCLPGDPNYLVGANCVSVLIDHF
UniProt P61586: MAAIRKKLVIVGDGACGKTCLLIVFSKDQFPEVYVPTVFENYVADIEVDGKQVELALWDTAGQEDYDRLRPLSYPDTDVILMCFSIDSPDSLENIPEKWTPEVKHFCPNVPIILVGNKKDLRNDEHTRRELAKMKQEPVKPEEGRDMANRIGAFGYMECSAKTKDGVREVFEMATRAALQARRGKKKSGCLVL

Experiments:
[1] = molecular target: T1, VE-cadherin (endogenous, HUVEC) (human (endogenous in HUVEC)) (UniProt P33151); test: co-IP
T1 sequence: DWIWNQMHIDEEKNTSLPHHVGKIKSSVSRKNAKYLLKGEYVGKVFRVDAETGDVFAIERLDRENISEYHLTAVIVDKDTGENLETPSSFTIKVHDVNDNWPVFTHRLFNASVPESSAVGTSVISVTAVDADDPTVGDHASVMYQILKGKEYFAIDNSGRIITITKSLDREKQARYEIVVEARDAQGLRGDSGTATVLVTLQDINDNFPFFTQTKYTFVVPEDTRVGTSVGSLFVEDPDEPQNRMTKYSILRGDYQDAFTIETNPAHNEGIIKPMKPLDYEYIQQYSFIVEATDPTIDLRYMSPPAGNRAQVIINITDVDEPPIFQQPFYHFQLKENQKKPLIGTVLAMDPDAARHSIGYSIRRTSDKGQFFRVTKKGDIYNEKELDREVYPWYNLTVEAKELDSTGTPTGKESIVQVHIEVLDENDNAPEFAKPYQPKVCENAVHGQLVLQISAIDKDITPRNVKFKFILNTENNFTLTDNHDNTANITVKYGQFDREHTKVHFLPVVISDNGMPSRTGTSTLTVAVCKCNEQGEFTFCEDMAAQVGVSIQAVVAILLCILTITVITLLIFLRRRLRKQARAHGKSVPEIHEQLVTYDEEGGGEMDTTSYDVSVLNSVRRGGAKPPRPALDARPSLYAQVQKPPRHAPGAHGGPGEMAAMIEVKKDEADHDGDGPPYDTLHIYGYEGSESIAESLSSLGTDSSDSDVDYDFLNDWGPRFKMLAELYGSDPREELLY

[2] = molecular target: ZO-1 (endogenous, HUVEC) (human (endogenous in HUVEC)) (UniProt Q07157); test: co-IP
[3] = molecular target: GST-RhoA^G17A (nucleotide-free RhoA mutant) (UniProt P61586); test: pull-down

ARHGEF18 (endogenous, HUVEC) (from UniProt Q6ZSZ5-4)
binding [1]: no binding
binding [2]: binds
binding [3]: binds
